{"source": "PubChem BioAssay AID1053208, Peter MacCallum Cancer Centre, 2014", "purpose": "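Genes whose silencing cuts survival of bone tumour cells only with doxorubicin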 (primary screen)", "cells": "mouse osteosarcoma cells, early-passage culture from an engineered mouse model of fibroblastic bone tumour", "knock-down reagent": "siRNA pool against mouse genes, 40 nM", "duration": "about 120 h (48 h before drug, then 72 h with drug)", "challenge": "doxorubicin 100 nM for 72 h, roughly 30-40% inhibitory dose", "measurement": "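Viability read as ATP luminescence after 72 h of 100 nM doxorubicin or none, duplicate wells averaged, scaled to non-targeting siRNA, then expressed as robust z-scores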", "scale": "viability z-score with doxorubicin: higher = more viable cells under doxorubicin; viability z-score without drug: higher = more viable cells with knock-down alone", "rule for the call": "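Called active if knock-down leaves viability unchanged without drug (z within -2 to 2) but lowers it with doxorubicin (z at or under -2)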", "note": "This is an unselected part of about 17,000 reagents tested. Of all reagents, 788 (4.7%) were called active. 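Calls rest on z-score classes alone; an extra cut-off of viability at most 70% of control was not applied to them.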 A number with no mark means an inactive call. Reagents against one gene are numbered here. Not all columns of the deposit are shown."}
The opening 3 entries, ahead of the listing:
{"Target gene":"Galr1","pool no.":1,"combined z-score class":"no change with or without drug","viability z-score with doxorubicin":0.9,"viability z-score without drug":0.17}
{"Target gene":"D430041D05Rik","pool no.":1,"combined z-score class":"no change with or without drug","viability z-score with doxorubicin":0.22,"viability z-score without drug":-0.34}
{"Target gene":"Bcas3","pool no.":1,"combined z-score class":"no change with or without drug","viability z-score with doxorubicin":1.12,"viability z-score without drug":0.84}

The list itself, from the start:
{"Target gene":"Galr1","pool no.":1,"combined z-score class":"no change with or without drug","viability z-score with doxorubicin":0.9,"viability z-score without drug":0.17}
{"Target gene":"D430041D05Rik","pool no.":1,"combined z-score class":"no change with or without drug","viability z-score with doxorubicin":0.22,"viability z-score without drug":-0.34}
{"Target gene":"Bcas3","pool no.":1,"combined z-score class":"no change with or without drug","viability z-score with doxorubicin":1.12,"viability z-score without drug":0.84}
{"Target gene":"Plxdc2","pool no.":1,"combined z-score class":"no change with or without drug","viability z-score with doxorubicin":0.67,"viability z-score without drug":-1.52}
{"Target gene":"Slc52a3","pool no.":1,"combined z-score class":"no change with or without drug","viability z-score with doxorubicin":-1.12,"viability z-score without drug":0}
{"Target gene":"Slc15a3","pool no.":1,"combined z-score class":"no change with or without drug","viability z-score with doxorubicin":-1.8,"viability z-score without drug":-0.84}
{"Target gene":"Ttr","pool no.":1,"combined z-score class":"no change with or without drug","viability z-score with doxorubicin":1.46,"viability z-score without drug":1.01}
{"Target gene":"Rab27a","pool no.":1,"combined z-score class":"no change with or without drug","viability z-score with doxorubicin":-0.79,"viability z-score without drug":0.17}
{"Target gene":"Ube2v2","pool no.":1,"combined z-score class":"no change with or without drug","viability z-score with doxorubicin":-0.79,"viability z-score without drug":0.51}
{"Target gene":"Ginm1","pool no.":1,"combined z-score class":"no change with or without drug","viability z-score with doxorubicin":-0.34,"viability z-score without drug":1.35}
{"Target gene":"Oc90","pool no.":1,"combined z-score class":"no change with or without drug","viability z-score with doxorubicin":-0.45,"viability z-score without drug":-1.18}
{"Target gene":"Fam114a1","pool no.":1,"combined z-score class":"no change with or without drug","viability z-score with doxorubicin":-0.56,"viability z-score without drug":-1.18}
{"Target gene":"Clta","pool no.":1,"combined z-score class":"no change with or without drug","viability z-score with doxorubicin":-1.01,"viability z-score without drug":-0.67}
{"Target gene":"Ankrd2","pool no.":1,"combined z-score class":"low cell count with doxorubicin only (active)","viability z-score with doxorubicin":-2.02,"viability z-score without drug":-1.52}
{"Target gene":"Epha8","pool no.":1,"combined z-score class":"no change with or without drug","viability z-score with doxorubicin":0.67,"viability z-score without drug":0.17}
{"Target gene":"Taf4b","pool no.":1,"combined z-score class":"no change with or without drug","viability z-score with doxorubicin":0.11,"viability z-score without drug":0.51}
{"Target gene":"Lsm10","pool no.":1,"combined z-score class":"no change with or without drug","viability z-score with doxorubicin":-0.11,"viability z-score without drug":-0.51}
{"Target gene":"Tmem131l","pool no.":1,"combined z-score class":"no change with or without drug","viability z-score with doxorubicin":-1.57,"viability z-score without drug":1.18}
{"Target gene":"Thap12","pool no.":1,"combined z-score class":"no change with or without drug","viability z-score with doxorubicin":-0.56,"viability z-score without drug":-0.34}
{"Target gene":"Mpo","pool no.":1,"combined z-score class":"no change with or without drug","viability z-score with doxorubicin":-0.11,"viability z-score without drug":0.51}
{"Target gene":"Gm5111","pool no.":1,"combined z-score class":"no change with or without drug","viability z-score with doxorubicin":-0.22,"viability z-score without drug":0.17}
{"Target gene":"Pde9a","pool no.":1,"combined z-score class":"no change with or without drug","viability z-score with doxorubicin":0.56,"viability z-score without drug":-0.84}
{"Target gene":"Cfdp1","pool no.":1,"combined z-score class":"no change with or without drug","viability z-score with doxorubicin":-1.57,"viability z-score without drug":-0.51}
{"Target gene":"Oxt","pool no.":1,"combined z-score class":"high cell count with and without drug","viability z-score with doxorubicin":2.14,"viability z-score without drug":2.36}
{"Target gene":"Ddr1","pool no.":1,"combined z-score class":"no change with or without drug","viability z-score with doxorubicin":0,"viability z-score without drug":-0.51}
{"Target gene":"Serpina3n","pool no.":1,"combined z-score class":"no change with or without drug","viability z-score with doxorubicin":-0.11,"viability z-score without drug":0.17}
{"Target gene":"Muc1","pool no.":1,"combined z-score class":"low cell count without drug only","viability z-score with doxorubicin":-1.8,"viability z-score without drug":-2.19}
{"Target gene":"Cd47","pool no.":1,"combined z-score class":"no change with or without drug","viability z-score with doxorubicin":0.45,"viability z-score without drug":-0.51}
{"Target gene":"Cd47","pool no.":2,"combined z-score class":"no change with or without drug","viability z-score with doxorubicin":0.22,"viability z-score without drug":0.34}
